PubChem BioAssay AID504793 – Drosophila RNAi Screening Center, 2011

Screen: 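Whole-genome screen for parts of the DNA damage checkpoint at G2/M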 (primary screen)
System: Drosophila S2R+ cells
Knock-down reagent: long dsRNA against Drosophila genes, about 0.25 µg dsRNA per well
Timing: 4 days of dsRNA, then 4 hours of drug before read-out
Challenge: doxorubicin 0.5 µM for 4 hours to cause double-strand breaks, in cells also given a low, harmless dose of dsRNA against nbs to sensitise the assay
Read-out: 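Per-well count of mitotic cells stained for phospho-histone H3 after doxorubicin exposure, used as mitotic index; counts are raw and not normalised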
Direction: mitotic cells: higher = more cells in mitosis, weaker G2 arrest
Hit rule: 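a call needs confirmation in secondary tests, with other dsRNAs and a check of mitotic timing without damage, not just a high primary count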
Meaning of the calls: active = confirmed in follow-up tests; inactive = not confirmed
In all, the deposit lists about 23,000 reagents; this is an unselected part of those that have a named target and a result. Over the whole deposit, 62 (0.27%) were called active. 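Calls come from follow-up tests whose scores are not deposited, so confirmed genes may have low counts here; counts are not normalised per plate.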 Raw values are not corrected between plates. Names joined by + are all predicted targets of the reagent.

Cds + Setx [DRSC27090] → mitotic cells, replicate 1: 3; Call: inactive
CG17648 [DRSC00508] → mitotic cells, replicate 1: 3; Call: inactive
Acp26Ab (Accessory gland protein 26Ab) [DRSC01856] → mitotic cells, replicate 1: 8; Call: inactive
Acp26Ab (Accessory gland protein 26Ab) [DRSC28398] → mitotic cells, replicate 1: 7; Call: inactive
CG32638 [DRSC18968] → mitotic cells, replicate 1: 5; Call: inactive
heix (heixuedian) [DRSC03542] → mitotic cells, replicate 1: 2; Call: inactive

The list goes on (2 carried over from the part before).
CG32638 [DRSC18968] → mitotic cells, replicate 1: 5; Call: inactive
heix (heixuedian) [DRSC03542] → mitotic cells, replicate 1: 2; Call: inactive
Gtpx [DRSC08221] → mitotic cells, replicate 1: 5; Call: inactive
Gtpx [DRSC22117] → mitotic cells, replicate 1: 11; Call: inactive
Cftr (CF transmembrane conductance regulator) [DRSC15872] → mitotic cells, replicate 1: 6; Call: inactive
Cftr (CF transmembrane conductance regulator) [DRSC24655] → mitotic cells, replicate 1: 5; Call: inactive
Hk (Hyperkinetic) [DRSC17638] → mitotic cells, replicate 1: 5; Call: inactive
Hk (Hyperkinetic) [DRSC24985] → mitotic cells, replicate 1: 8; Call: inactive
Hk (Hyperkinetic) [DRSC39129] → mitotic cells, replicate 1: 3; Call: inactive
Boh1 (Buddy of Hmr 1) [DRSC14487] → mitotic cells, replicate 1: 8; Call: inactive
